Test results taken from patent US8513232B2, “Substituted spirocyclic piperidine derivatives as histamine-3 (H3) receptor ligands” (Cephalon, Inc., priority 2008, dated 2013).
Structures were worked out from names or drawings and are uncertain.

The chains behind the UniProt entries cited, without tags or fusion partners.
UniProt Q9Y5N1, whole entry: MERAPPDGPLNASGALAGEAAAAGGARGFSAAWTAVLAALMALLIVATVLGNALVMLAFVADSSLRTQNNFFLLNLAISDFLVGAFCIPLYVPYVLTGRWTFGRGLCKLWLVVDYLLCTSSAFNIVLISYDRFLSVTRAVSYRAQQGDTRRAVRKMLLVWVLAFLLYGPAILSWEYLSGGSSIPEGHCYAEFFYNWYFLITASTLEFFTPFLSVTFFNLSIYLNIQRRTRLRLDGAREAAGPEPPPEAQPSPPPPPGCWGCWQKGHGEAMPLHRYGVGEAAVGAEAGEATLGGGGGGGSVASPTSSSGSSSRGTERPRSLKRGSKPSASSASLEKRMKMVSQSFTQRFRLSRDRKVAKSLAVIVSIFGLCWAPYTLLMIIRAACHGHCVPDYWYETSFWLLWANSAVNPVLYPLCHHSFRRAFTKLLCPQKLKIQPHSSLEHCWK
UniProt Q9QYN8, whole entry: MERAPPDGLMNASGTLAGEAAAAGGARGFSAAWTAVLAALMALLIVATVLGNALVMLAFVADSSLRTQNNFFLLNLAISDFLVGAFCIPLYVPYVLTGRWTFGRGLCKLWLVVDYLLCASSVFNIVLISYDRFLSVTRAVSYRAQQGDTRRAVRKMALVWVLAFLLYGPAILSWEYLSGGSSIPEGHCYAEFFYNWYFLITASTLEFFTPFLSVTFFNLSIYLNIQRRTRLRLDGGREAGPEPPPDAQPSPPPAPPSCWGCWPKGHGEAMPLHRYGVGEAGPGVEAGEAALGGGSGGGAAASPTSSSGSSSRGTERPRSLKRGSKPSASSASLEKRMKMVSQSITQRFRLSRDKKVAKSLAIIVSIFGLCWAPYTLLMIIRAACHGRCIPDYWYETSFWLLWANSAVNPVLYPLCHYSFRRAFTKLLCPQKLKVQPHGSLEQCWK

Key:
[1] = biological target: human H3 receptor (Homo sapiens, UniProt Q9Y5N1); assay: Human H3 radioligand binding ([3H]-N-alpha-methylhistamine, SPA); settings: read-out: Human H3 Ki, Table D
Experimental: Methods: CHO cells stably expressing the human H3 receptor (GenBank: NM_007232) were harvested and cell pellets were frozen (−80° C.). Cell pellets were resuspended in 5 mM Tris-HCl, pH 7.5 with […] and a cocktail of protease inhibitors (Complete Protease Inhibitior Tablets, Roche Diagnostics). Cells were disrupted using a polytron cell homogenizer and the suspension was centrifuged at 1000×g for 10 minutes at 4° C. The pellet was discarded and the supernatant centrifuged at 40,000×g for 30 min at 4° C. This membrane pellet was washed in membrane buffer containing 50 mM Tris-HCl, pH 7.5 with 0.6 mM EDTA, 5 mM MgCl2 and protease inhibitors, recentrifuged as above and the final pellet resuspended in membrane buffer plus 250 mM sucrose and frozen at −80° C.
Radioligand Binding. Membranes were resuspended in 50 mM Tris HCl (pH 7.4), 5 mM MgCl2, 0.1% BSA. […] Non-specific binding was determined in the presence of 10 μM clobenpropit. Radioligand bound to receptor, and therefore in proximity to the scintillation beads, was measured using a MicroBeta scintillation counter.

[2] = biological target: rat histamine H3 receptor (Rattus norvegicus, UniProt Q9QYN8); assay: Rat H3 radioligand binding ([3H]-N-alpha-methylhistamine, SPA); settings: read-out: Rat H3 Ki, Table D

`O=C(c1ccc(-c2ccc3c(c2)COC2(CCN(C4CCC4)CC2)O3)cc1Cl)N1CCOCC1` was tested, and the Ki [1] was < 200 nM and the Ki [2] was < 200 nM.
